Data taken from publication doi:10.1101/2025.05.13.653593.
No constants are given. Whether binding was seen depends on the method and setting. Binding seen in cells or lysates may run through a third protein. These calls come from enrichment with a bait or labelling near it, and not all partners need be listed.

The chains behind the UniProt entries cited, without tags or fusion partners. Where a name states a change or a piece, a line headed by the entry shows the natural chain unless it says otherwise.
UniProt P9WNQ9, whole entry, stated change not applied: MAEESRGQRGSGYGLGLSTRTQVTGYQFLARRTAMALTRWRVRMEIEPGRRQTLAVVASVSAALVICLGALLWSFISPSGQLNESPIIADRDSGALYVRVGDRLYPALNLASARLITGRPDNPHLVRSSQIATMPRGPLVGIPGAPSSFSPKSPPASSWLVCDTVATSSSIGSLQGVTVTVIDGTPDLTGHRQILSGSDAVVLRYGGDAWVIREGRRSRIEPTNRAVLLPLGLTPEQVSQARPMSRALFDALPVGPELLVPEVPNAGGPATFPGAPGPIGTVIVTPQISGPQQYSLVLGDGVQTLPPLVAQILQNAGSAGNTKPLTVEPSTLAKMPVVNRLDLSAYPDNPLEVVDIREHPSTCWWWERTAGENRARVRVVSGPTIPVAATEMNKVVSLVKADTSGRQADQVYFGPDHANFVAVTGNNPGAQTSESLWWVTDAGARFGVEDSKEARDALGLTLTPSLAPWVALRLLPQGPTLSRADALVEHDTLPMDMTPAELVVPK

Molecular target: GFP-EccB5 (Mycobacterium tuberculosis) (UniProt P9WNQ9)
Experiment: affinity purification with mass spectrometry

Substance: GSDMD found in the anti-GFP immunoprecipitate of HEK293T cells (from UniProt P57764 1-484)
- binding: binds
